Measurements reported in PubChem BioAssay AID1508597 (Cure First, 2020)
The deposit covers about 2,100 reagents; this is a part drawn at random. 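Calls flag viability under 80% in either arm, not effects specific to rucaparib; the reference for percent is not stated.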 Entries without a mark were called inactive. Reagent sequences are not shown. The record does not give: the 100% reference.

Aim: 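Genes whose silencing sensitises or protects ovarian cancer cells against rucaparib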 (primary screen)
System: human ovarian carcinoma lines grown from tumours: OCI-P5x (papillary serous) and OCI-C5x (clear cell)
Knock-down reagent: siRNA pool against human genes, 1.25 pmol siRNA per well
Timing: 72 h or 96 h, depending on the cell culture
Challenge: rucaparib 20 µM (about IC30) or vehicle, present until read-out
Measured: 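ATP luminescence measured at 72 or 96 h according to the culture, then normalised and expressed as percent viability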
Direction: viability, normalised: higher = more viable cells remaining
Rule for the call: 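Active when normalised viability falls below 80 percent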
Calls: active = viability under 80%; inactive = viability 80% or more

With UCK2, rucaparib or vehicle Rucaparib, cell line OCI-C5x (clear cell), technical replicate 1 the deposit lists viability, normalised (%) = 55.4 (active).
UCK2, rucaparib or vehicle Rucaparib, cell line OCI-C5x (clear cell), technical replicate 2 scored viability, normalised (%) = 45.7 (active).
With UCK2, rucaparib or vehicle Rucaparib, cell line OCI-C5x (clear cell), technical replicate 3, the entry reads viability, normalised (%) = 39.3 (active).
With UCK2, rucaparib or vehicle Rucaparib, cell line OCI-P5x (serous), technical replicate 1 the deposit lists viability, normalised (%) = 108.
With UCK2, rucaparib or vehicle Rucaparib, cell line OCI-P5x (serous), technical replicate 2 the deposit lists viability, normalised (%) = 101.
For UCK2, rucaparib or vehicle Rucaparib, cell line OCI-P5x (serous), technical replicate 3, the entry reads viability, normalised (%) = 88.
UCK2, rucaparib or vehicle Vehicle, cell line OCI-C5x (clear cell), technical replicate 1 scored viability, normalised (%) = 40 (active).
For UCK2, rucaparib or vehicle Vehicle, cell line OCI-C5x (clear cell), technical replicate 2, the values are viability, normalised (%) = 42 (active).
With UCK2, rucaparib or vehicle Vehicle, cell line OCI-C5x (clear cell), technical replicate 3 the deposit lists viability, normalised (%) = 40.4 (active).
UCK2, rucaparib or vehicle Vehicle, cell line OCI-P5x (serous), technical replicate 1 showed viability, normalised (%) = 53.2 (active).
For UCK2, rucaparib or vehicle Vehicle, cell line OCI-P5x (serous), technical replicate 2, the entry reads viability, normalised (%) = 68.2 (active).
UCK2, rucaparib or vehicle Vehicle, cell line OCI-P5x (serous), technical replicate 3 showed viability, normalised (%) = 52.1 (active).
With CHD4, rucaparib or vehicle Rucaparib, cell line OCI-C5x (clear cell), technical replicate 1, the values are viability, normalised (%) = 48.2 (active).
CHD4, rucaparib or vehicle Rucaparib, cell line OCI-C5x (clear cell), technical replicate 2 scored viability, normalised (%) = 40.9 (active).
With CHD4, rucaparib or vehicle Rucaparib, cell line OCI-C5x (clear cell), technical replicate 3, the values are viability, normalised (%) = 44.5 (active).
For CHD4, rucaparib or vehicle Rucaparib, cell line OCI-P5x (serous), technical replicate 1, the values are viability, normalised (%) = 71 (active).
For CHD4, rucaparib or vehicle Rucaparib, cell line OCI-P5x (serous), technical replicate 2, the entry reads viability, normalised (%) = 57.6 (active).
For CHD4, rucaparib or vehicle Rucaparib, cell line OCI-P5x (serous), technical replicate 3 the deposit lists viability, normalised (%) = 46.6 (active).
CHD4, rucaparib or vehicle Vehicle, cell line OCI-C5x (clear cell), technical replicate 1 scored viability, normalised (%) = 47 (active).
For CHD4, rucaparib or vehicle Vehicle, cell line OCI-C5x (clear cell), technical replicate 2 the deposit lists viability, normalised (%) = 44.2 (active).
CHD4, rucaparib or vehicle Vehicle, cell line OCI-C5x (clear cell), technical replicate 3 gave viability, normalised (%) = 38.6 (active).
CHD4, rucaparib or vehicle Vehicle, cell line OCI-P5x (serous), technical replicate 1 scored viability, normalised (%) = 58.7 (active).
CHD4, rucaparib or vehicle Vehicle, cell line OCI-P5x (serous), technical replicate 2 scored viability, normalised (%) = 64.1 (active).
CHD4, rucaparib or vehicle Vehicle, cell line OCI-P5x (serous), technical replicate 3 showed viability, normalised (%) = 55.9 (active).
